The assay has as its target NDUCA1 (Tetrahymena thermophila (endogenous)). Kind of assay: cryo-EM structure.

No constants are given. Whether binding was seen depends on the method and setting. Binding can be weak; no strength is given.

B1: COX3b (protein, UniProt Q950Y6 1-594)
chain: MLICNFLMYSNFSRIYWFDFNGTVNENLPLNYNVLKICRNEINKLEKLNENNLGTQKNPIKLNLSFEDKHYNTNNLVLDLNSYETFNSKNFISSIFDKTFESLNTVLMAPIYSFLEFKLKLSSTKINTNHYYVINGKLYITYNDSFKLFTTINDYFNDLNELSNTKLFFLYRSFNIYNIKLNSLVDFVFLKLILFIHLLYLKSTNYNRFDYRLKQTDWGFYINNNSNYIQNIFSGLKYIWRGLRFWIIGLLLGLSSIYYLMYVRLLPFNKIIFAWILVAMFLYWLLSGFVFFVKKYQYSKFTAAIQRFWKRTYIIFWVIEAGTFSVFFYLTLNASSEPVYMYDQIKIYKTHLFSWRWFLIKLLPSVSIILLGYYLQLTLKWNLFNKQNTIVLLITLLLLYILWLEFYQFYHILSFYGNINWAFDYDEYIWTLELDTRRTRLANNYIAICLFAKFWHFVFIFLFWVFFVLRINELGRIRYPLLVANVQNFIIIYIMSWAYMYPWLKFIFRKYLDVPYYWFYLNGRELGIRVFFTDLKLFFYGITNRLFDFNPSSIKFEKYPFYYWINSSQLTEFNQYRKFVIRDSIIYSLNNYII
For the molecule B1, the binding entry is given as “binds”.

Values taken from paper doi:10.1101/2022.06.26.497646.
